Data published in article doi:10.1101/2023.05.20.541568.
Read-outs that look alike come from different tables or passages of the source. These are yes or no findings as the source states them, for the method shown. In cells and extracts the contact can be indirect. Some entries that bind do so weakly or less than the wild type.

Sequences of proteins named here, by UniProt entry; tags and fusion partners are left off. Residues count along the entry.
UniProt Q9LVE2: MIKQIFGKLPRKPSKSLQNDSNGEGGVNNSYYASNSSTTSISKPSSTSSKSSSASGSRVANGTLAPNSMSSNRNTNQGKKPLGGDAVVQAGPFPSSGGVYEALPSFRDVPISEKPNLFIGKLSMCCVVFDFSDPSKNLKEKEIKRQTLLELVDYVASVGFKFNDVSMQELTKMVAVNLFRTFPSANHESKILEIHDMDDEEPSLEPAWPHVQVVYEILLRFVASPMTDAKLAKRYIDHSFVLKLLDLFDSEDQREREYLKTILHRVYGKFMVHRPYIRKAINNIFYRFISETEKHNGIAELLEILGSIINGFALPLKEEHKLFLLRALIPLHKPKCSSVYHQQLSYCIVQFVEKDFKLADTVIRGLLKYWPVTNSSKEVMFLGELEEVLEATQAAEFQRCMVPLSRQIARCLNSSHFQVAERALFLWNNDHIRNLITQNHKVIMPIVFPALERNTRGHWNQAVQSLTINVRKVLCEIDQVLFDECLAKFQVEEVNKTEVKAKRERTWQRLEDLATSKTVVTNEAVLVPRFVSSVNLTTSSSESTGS
UniProt Q9LKA3, residues 23-341: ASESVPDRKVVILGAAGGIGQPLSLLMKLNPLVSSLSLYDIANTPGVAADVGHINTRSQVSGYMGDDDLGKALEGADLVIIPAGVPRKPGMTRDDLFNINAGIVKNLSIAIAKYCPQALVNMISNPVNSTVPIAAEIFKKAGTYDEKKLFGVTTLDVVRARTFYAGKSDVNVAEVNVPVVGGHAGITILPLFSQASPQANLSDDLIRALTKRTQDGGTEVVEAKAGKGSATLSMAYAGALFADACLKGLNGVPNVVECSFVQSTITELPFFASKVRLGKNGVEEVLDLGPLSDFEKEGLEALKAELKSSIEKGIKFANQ
UniProt P93033, residues 29-492: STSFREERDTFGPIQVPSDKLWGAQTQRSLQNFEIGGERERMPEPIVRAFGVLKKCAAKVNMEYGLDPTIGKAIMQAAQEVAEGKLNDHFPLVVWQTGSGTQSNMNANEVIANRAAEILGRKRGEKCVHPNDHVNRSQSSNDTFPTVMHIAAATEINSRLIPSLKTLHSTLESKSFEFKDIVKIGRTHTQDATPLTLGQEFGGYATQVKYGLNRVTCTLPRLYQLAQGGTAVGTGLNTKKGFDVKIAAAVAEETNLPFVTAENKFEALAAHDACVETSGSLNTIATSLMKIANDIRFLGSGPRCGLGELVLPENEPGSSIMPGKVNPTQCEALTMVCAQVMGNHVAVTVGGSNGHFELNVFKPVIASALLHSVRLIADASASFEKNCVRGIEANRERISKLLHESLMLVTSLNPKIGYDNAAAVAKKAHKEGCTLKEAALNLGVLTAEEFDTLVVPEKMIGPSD

Experiments:
Test in all cases: split reporter
[1] = biological target: PP2A regulatory subunit (B’ζ) (Arabidopsis thaliana) (UniProt Q9LVE2)
[2] = biological target: PP2A regulatory subunit (B’ζ) (Arabidopsis thaliana) (UniProt Q9LVE2); remark: listed apart in the source
[3] = biological target: PP2A regulatory subunit (B’ζ) (Arabidopsis thaliana) (UniProt Q9LVE2); remark: listed apart in the source
[4] = biological target: PP2A regulatory subunit (B’ζ) (Arabidopsis thaliana) (UniProt Q9LVE2); remark: listed apart in the source

For “Mitochondrial malate dehydrogenase (mMDH2) (from UniProt Q9LKA3 23-341) (enzyme)”, the binding [1] was “binds”.

In the case of “Citrate synthase (CSY5) (from UniProt Q9M1D3 26-464) (enzyme)”, the binding [1] is reported as “no binding”.

For “Fumarase (FUM1) (from UniProt P93033 29-492) (enzyme)”, the binding [1] was “no binding” and the binding [2] was “no binding”.

B1: Aconitase (ACO3) (enzyme, UniProt Q9SIB9 79-990)
chain: VSPVLDRLQRTFSSMASEHPFKGIFTTLPKPGGGEFGKFYSLPALNDPRVDKLPYSIRILLESAIRNCDNFQVTKEDVEKIIDWEKTSPKQVEIPFKPARVLLQDFTGVPAVVDLACMRDAMNKLGSDSNKINPLVPVDLVIDHSVQVDVARSENAVQANMELEFQRNKERFAFLKWGSTAFQNMLVVPPGSGIVHQVNLEYLGRVVFNTKGLLYPDSVVGTDSHTTMIDGLGVAGWGVGGIEAEATMLGQPMSMVLPGVVGFKLAGKMRNGVTATDLVLTVTQMLRKHGVVGKFVEFYGNGMSGLSLADRATIANMSPEYGATMGFFPVDHVTLQYLKLTGRSDETVAMIEAYLRANNMFVDYNEPQQDRVYSSYLELNLDDVEPCISGPKRPHDRVTLKEMKADWHSCLDSKVGFKGFAIPKEAQEKVVNFSFDGQPAELKHGSVVIAAITSCTNTSNPSVMLGAGLVAKKACDLGLQVKPWIKTSLAPGSGVVTKYLLKSGLQEYLNEQGFNIVGYGCTTCIGNSGEINESVGAAITENDIVAAAVLSGNRNFEGRVHPLTRANYLASPPLVVAYALAGTVNIDFETEPIGKGKNGKDVFLRDIWPTTEEIAEVVQSSVLPDMFRATYESITKGNPMWNKLSVPENTLYSWDPNSTYIHEPPYFKDMTMDPPGPHNVKDAYCLLNFGDSITTDHISPAGNIQKDSPAAKFLMERGVDRKDFNSYGSRRGNDEIMARGTFANIRIVNKLMNGEVGPKTVHIPSGEKLSVFDAAMRYKSSGEDTIILAGAEYGSGSSRDWAAKGPMLQGVKAVIAKSFERIHRSNLVGMGIIPLCFKSGEDADTLGLTGHERYTIHLPTDISEIRPGQDVTVTTDNGKSFTCTVRFDTEVELAYFNHGGILPYVIRNLSKQ
For B1, the binding [3] was “binds”.

B2: Citrate synthase (CSY5) (enzyme, UniProt Q9M1D3 26-464)
chain: SVRWLHSSELDLKSQMQEIIPEQQDRLKKLKSEQGKVPVGNITVDMVLGGMRGMTGLLWETSLLDADEGIRFRGMSIPECQKILPSAESGEEPLPESLLWLLLTGKVPTKEQANALSTELAHRAAVPAIDALPSTAHPMTQFASGVMALQVQSEFQKAYEQGDISKSKYWEPTFEDALNLIARVPVVASYVYRRMYKDGSIIPLDDSLDYGANFSHMLGFDSPQMKELMRLYVTIHSDHEGGNVSAHAGHLVGSALSDPYLSFAAALNGLAGPLHGLANQEVLLWIKLVVEECGESISKEQLKDYVWKTLNSGKVVPGYGHGVLRKTDPRYICQREFALKHLPDDPLFQLVSKLYEVVPPILTELGKVKNPWPNVDAHSGVLLNYYGLTEARYYTVLFGVSRSLGICSQLIWDRALGLPLERPKSVNMDWLDNFTRLNR
With B2 the binding [3] was “no binding”.

B3: Succinate dehydrogenase (SDH2-1) (enzyme, UniProt Q8LBZ7 29-279)
chain: TSTGAEAETKASSGGGRGSNLKTFQIYRWNPDNPGKPELQNYQIDLKDCGPMVLDALIKIKNEMDPSLTFRRSCREGICGSCAMNIDGCNGLACLTKIQDEASETTITPLPHMFVIKDLVVDMTNFYNQYKSIEPWLKRKTPASVPAKEILQSKKDRAKLDGMYECILCACCSTSCPSYWWNPESYLGPAALLHANRWISDSRDEYTKERLEAIDDEFKLYRCHTILNCARACPKGLNPGKQITHIKQLQR
With B3 the binding [4] was “no binding” and the binding [3] was “no binding”.
